Test results from PMC11143236.
These are yes or no findings as the source states them, for the method shown. In cells and extracts the contact can be indirect. A yes stands for co-enrichment or nearness to the bait. Other partners may have been found. Sequences can lack the tags named with a protein.

By UniProt entry, the sequences of proteins in these tests, tags left out.
UniProt P11142: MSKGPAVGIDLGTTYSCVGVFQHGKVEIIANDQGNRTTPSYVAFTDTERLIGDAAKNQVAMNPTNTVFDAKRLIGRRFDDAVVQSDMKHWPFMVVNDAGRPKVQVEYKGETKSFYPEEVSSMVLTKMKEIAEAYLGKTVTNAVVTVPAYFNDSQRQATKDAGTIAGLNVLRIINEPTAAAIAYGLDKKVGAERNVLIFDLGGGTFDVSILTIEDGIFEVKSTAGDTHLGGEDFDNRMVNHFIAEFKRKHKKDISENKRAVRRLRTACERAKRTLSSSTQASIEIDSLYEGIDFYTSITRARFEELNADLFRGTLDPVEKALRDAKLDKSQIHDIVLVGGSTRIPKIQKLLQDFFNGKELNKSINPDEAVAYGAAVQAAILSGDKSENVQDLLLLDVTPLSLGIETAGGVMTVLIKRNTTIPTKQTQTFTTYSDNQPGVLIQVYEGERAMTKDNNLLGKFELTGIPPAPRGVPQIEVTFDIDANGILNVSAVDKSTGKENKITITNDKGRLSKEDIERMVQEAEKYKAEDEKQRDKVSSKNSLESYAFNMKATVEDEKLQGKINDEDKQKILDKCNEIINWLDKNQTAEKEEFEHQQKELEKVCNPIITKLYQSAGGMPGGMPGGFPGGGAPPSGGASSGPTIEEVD

Key:
Flag-YTHDF3 C474S = biological target: T1, Flag-YTHDF3 C474S (UniProt Q7Z739); assay: affinity purification with mass spectrometry; Flag-YTHDF3 WT and C474S immunoprecipitates compared by LC-MS/MS; cells not given
T1 sequence: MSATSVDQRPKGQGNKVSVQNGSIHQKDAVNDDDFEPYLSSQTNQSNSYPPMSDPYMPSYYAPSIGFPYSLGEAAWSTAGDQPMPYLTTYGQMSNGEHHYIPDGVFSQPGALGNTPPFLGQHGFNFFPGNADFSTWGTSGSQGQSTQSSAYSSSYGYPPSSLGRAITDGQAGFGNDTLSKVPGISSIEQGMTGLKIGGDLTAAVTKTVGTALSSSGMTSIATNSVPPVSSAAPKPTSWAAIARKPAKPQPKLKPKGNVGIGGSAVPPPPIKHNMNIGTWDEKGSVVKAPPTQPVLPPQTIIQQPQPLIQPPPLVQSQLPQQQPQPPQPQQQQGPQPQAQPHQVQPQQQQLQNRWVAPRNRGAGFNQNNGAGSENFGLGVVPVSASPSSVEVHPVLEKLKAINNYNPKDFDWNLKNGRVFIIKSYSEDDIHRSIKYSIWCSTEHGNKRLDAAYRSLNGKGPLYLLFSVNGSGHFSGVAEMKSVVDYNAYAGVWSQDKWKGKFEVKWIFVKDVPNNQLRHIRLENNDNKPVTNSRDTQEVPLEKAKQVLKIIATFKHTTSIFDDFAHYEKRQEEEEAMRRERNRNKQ

Flag-ZDHHC20 = biological target: T2, Flag-ZDHHC20 (UniProt Q5W0Z9); assay: affinity purification with mass spectrometry; Flag-ZDHHC20 immunoprecipitated with Flag antibody from PANC-1 cells; beads digested with trypsin, LC-MS/MS
T2 sequence: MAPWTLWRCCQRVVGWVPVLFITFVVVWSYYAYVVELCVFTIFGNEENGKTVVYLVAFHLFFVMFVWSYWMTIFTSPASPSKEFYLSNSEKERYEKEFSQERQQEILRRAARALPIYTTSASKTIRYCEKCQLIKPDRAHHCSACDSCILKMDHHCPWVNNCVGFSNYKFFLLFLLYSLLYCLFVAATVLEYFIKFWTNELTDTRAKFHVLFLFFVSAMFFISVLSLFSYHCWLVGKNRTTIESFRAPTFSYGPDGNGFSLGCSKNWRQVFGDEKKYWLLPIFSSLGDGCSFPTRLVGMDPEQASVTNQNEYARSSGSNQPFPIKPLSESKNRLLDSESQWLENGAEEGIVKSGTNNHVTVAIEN

## HSC70 (from UniProt P11142 1-646)
Flag-YTHDF3 C474S
  binding: binds

## YTH domain-containing family protein 3 (YTHDF3), endogenous (from UniProt Q7Z739 1-585)
Flag-ZDHHC20
  binding: binds
